# Data published in PubChem BioAssay AID493014 (National Center for Advancing Translational Sciences (NCATS), 2011).
# Out of some 340,000 compounds screened, about 170 (0.05%) were called active. The shares of active, inactive and inconclusive entries below differ from those in the screen. Calls follow the shape of the dose curve; as a rule, active = well fitted inhibition curve with a large enough effect in the signal ratio, with a control signal flat (not every such curve was filed as active); inconclusive = small, poorly fitted or top-dose-only effect, or effect the other way, or a change in a side signal; inactive = flat fitted curve, though single readings scatter; the % refers to the signal ratio. Potencies of inconclusive entries are doubtful fits and often do not repeat.
# Test: qHTS Assay to Find Inhibitors of Chronic Active B-Cell Receptor Signaling;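 as to activity change, negative = inhibition: plate controls were basal doxycycline-induced cells for no effect and cells given 10 µM MG132 for full effect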
# Settings: ABC-DLBCL IkBa-CBG/CBR reporter, luminescence ratio (green luciferase fused to IkBa over red control in TMD8 lymphoma cells), 4 h; activity change, negative = inhibition: at 46.1 µM (top of the series)
# Procedure, shortened: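 Concentration-response series (up to 46 uM) were applied to TMD8 dual-reporter cells for 4 h at 37C with doxycycline. Green/red ratio, after filter-overlap correction, defined %Activity; red signal alone was normalised to basal cells and zero luminescence.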
# Potency is read from the fitted curve at half-maximal effect.
Compound,"activity change, negative = inhibition",Potency
O=C(Nc1cccc(Cl)c1)c1ccc(Cn2cc(Cl)cn2)cc1,inconclusive: 17.9%,
COc1cc(OC)cc(C(=O)N/N=C\c2ccoc2)c1,,"inconclusive: 31.6 µM [cytotoxic, single point]"
COc1ccc(Nc2ccc([N+](=O)[O-])c3nonc23)c(OC)c1,inconclusive: 5.12%,
CC1=C[C@H]2Cc3cc(C)cc(C)c3S(=O)(=O)[C@@H]2C=C1,inconclusive: 3.95%,
CC1CCN(CCOCCOc2ccc(Br)cc2Cl)CC1,inconclusive: -10.6%,
COc1cc(C(=O)NNC(=O)c2ccoc2C)cc(OC)c1OC,,"inconclusive: 7.08 µM [falling, partial curve, poor fit]"
COc1ccc(C2(O)CC3CCC(C2)N3c2cc(C)nc(-c3ccccc3)n2)cc1 (stereo unspecified),inconclusive: 5%,
COc1ccccc1Nc1nc(N)nc(CSC(=S)N2CCN(c3ccccc3)CC2)n1,inconclusive: 2.15%,
CC1=NN=C(c2ccccc2)C(c2c[nH]c3ccccc23)N1O (stereo unspecified),inconclusive: 2.93%,
O=C(NCc1ccncc1)/C(=C/c1cccc([N+](=O)[O-])c1)NC(=O)c1ccccc1,inconclusive: 10%,
O=C(NCC1CCCO1)c1csc(Nc2cccc3ccccc23)n1 (stereo unspecified),,"inconclusive: 31.6 µM [rising, single point]"
COc1cccc(CSc2nc3n(n2)C(c2cccnc2)C(C(=O)Nc2ccccc2C)=C(C)N3)c1 (stereo unspecified),inactive,
CN(C(=O)/C=C/c1ccccc1)C1CCS(=O)(=O)C1 (stereo unspecified),inconclusive: 4.27%,
CC(C)(C)N(Cc1ccccc1)C(=O)COC(=O)c1ccc(S(=O)(=O)N2CCOCC2)cc1,inactive,
COC(=O)c1cc(C(=O)NCc2ccccc2)c(=O)[nH]c1C,inconclusive: -22.6%,
CN(c1cccc(NC(=O)CN(c2ccc(F)cc2)S(C)(=O)=O)c1)S(C)(=O)=O,inactive,
Cc1ccc(C)c(NC(=S)c2ccc3ccccc3n2)c1,inconclusive: 1.02%,
COc1cccc(NC(=O)Nc2cccnc2)c1,inconclusive: -13.1%,
CCc1cccc(NC(=O)CN2C=NS(=O)(=O)c3ccccc32)c1,,"inconclusive: 25.1 µM [falling, single point]"
CCOC(=O)C1=C(c2ccccc2)NC(=O)NC1c1ccc(O)c(Cl)c1 (stereo unspecified),,"inconclusive: 25.1 µM [falling, partial curve, poor fit]"
Cc1ccc(NC(=O)c2cccs2)cc1[N+](=O)[O-],inactive,

Compound,"activity change, negative = inhibition",Potency
CCOC(=O)C(c1ccccc1)C(Nc1ccccc1)c1ccccn1 (stereo unspecified),inactive,
CCOC(=O)[C@@H]1[C@H]2COc3ccccc3[C@H]2N2C(=O)N(c3ccccc3)C(=O)[C@]12C,inactive,
CC1(C)Cc2cccc(OCC(=O)Nc3nccs3)c2O1,inconclusive: -1.98%,
CC[C@@H]1C(c2ccc(F)cc2)=NN(c2ccccc2)[C@H]1C(=O)N1CCOC1=O,inactive,
COc1ccc(N=C2NN=C(c3ccc4c(c3)OCCO4)CS2)cc1,,"inconclusive: 6.51 µM [falling, single point]"
COc1ccccc1NC(=O)CSC1=NC(=O)C(NC(C)=O)C(=O)N1 (stereo unspecified),,"inconclusive: 29.1 µM [falling, single point]"
O=c1[nH]cnc2nn(-c3ccccc3)nc12,inconclusive: -15.9%,
COc1ccc(/C=N\NC(=O)c2sccc2C)cc1Cn1nc(C)cc1C,,"inconclusive: 14.1 µM [falling, partial curve, poor fit]"
COc1ccc(-c2nc(SCC(=O)Nc3nccs3)c(-c3ccc(Cl)cc3)[nH]2)cc1,inconclusive: 4.58%,
CCN(CC)C(=O)[C@H]1C[C@H](CC(=O)NCc2ccc(OC)c(OC)c2)C(=O)N2CCc3c([nH]c4ccc(Cl)cc34)[C@]12C,inconclusive: -18.7%,
CC1(C)C2CC=C(/C=N/NC(=O)c3ccccc3O)C1C2 (stereo unspecified),,"inconclusive: 29.1 µM [falling, single point]"
COc1cc(CN2CCN(C(=O)c3ccc(-c4ccccc4)cc3)CC2)cc(OC)c1OC,inactive,
COC(=O)C(C(=O)OC)C(CC(=O)c1ccc(C)cc1)c1cc(OC)c(OC)c(OC)c1 (stereo unspecified),inactive,
Fc1ccc(NC(=S)Nc2cccc(Cl)c2)cc1,inconclusive: 19.1%,
O=C(Nc1ccon1)c1cc2c(s1)CCCCCC2,inconclusive: 6.5%,
CCn1cc(/C=N/NC(=O)c2ccc3c(c2)OCO3)cn1,,"inconclusive: 6.51 µM [falling, partial curve, poor fit]"
COc1ccccc1-c1cc(C(=O)N/N=C\c2cnn(C)c2C)c2ccccc2n1,inactive,
O=C(Nc1ccc(F)cc1F)c1cc(Cl)sc1Cl,inconclusive: 0.146%,
Cc1noc(-c2ccc(C(F)(F)F)cc2)c1NC(=O)Nc1ccc(Cl)cc1,inactive,
CC(C)CN(CC(C)C)S(=O)(=O)c1cc([N+](=O)[O-])ccc1N1CCCCCC1,inconclusive: -0.288%,
CCOC(=O)c1c(C(C)(C)C)oc2ccc(O)cc12,inconclusive: 17.2%,

# Single values from above:
# Potency, `CC1(C)C2CC=C(/C=N/NC(=O)c3ccccc3O)C1C2` (stereo unspecified) is entered as inconclusive: 29.1 µM [falling, single point]
# activity change, negative = inhibition, `CC1(C)Cc2cccc(OCC(=O)Nc3nccs3)c2O1` is entered as inconclusive: -1.98%
# activity change, negative = inhibition, `Fc1ccc(NC(=S)Nc2cccc(Cl)c2)cc1` is entered as inconclusive: 19.1%

# The listing continues.

Compound,"activity change, negative = inhibition",Potency
C=C(C)c1cccc(C(C)(C)NC(=O)Nc2ccc(OC)nc2)c1,inconclusive: 6.82%,
OCc1cc(Br)ccc1OCc1nc2ccccc2s1,inconclusive: 263%,
N#CC1=C(N)NC(SCc2ccc(Br)cc2)=C(C#N)C12CCCCC2,,"inconclusive: 29.1 µM [rising, single point]"
Cc1cccc(Cn2cc(/C=C/[N+](=O)[O-])c3ccccc32)c1,,"inconclusive: 22.4 µM [falling, single point]"
O=C(c1ccc(NC(=S)NCc2ccco2)cc1)N1CCOCC1,inactive,
CC(=O)Cc1nsc(NC(=O)c2ccc(COc3ccccc3Cl)o2)n1,inconclusive: -14.4%,
Cc1ccccc1NC(=O)C(=O)NCCc1ccccc1,,"inconclusive: 25.9 µM [falling, single point]"
Cc1ccc(Cn2nc(C)c(NC(=O)CSc3nc4c(c(C(F)(F)F)n3)CCc3ccccc3-4)c2C)cc1,inactive,
O=C(NCCC1=CCCCC1)c1cc(-c2ccccn2)nc2ccccc12,inconclusive: 8.27%,
Cc1cc(/C=C2/C(=N)N3C(c4ccccc4)=CSC3=NC2=O)c(C)n1-c1ccccc1,inconclusive: 17.8%,
Cc1ccc(-n2ncc(C(=O)NCc3ccc4c(c3)OCO4)c2NC(=O)c2ccco2)cc1C,inconclusive: 4.78%,
Cn1nnnc1SCC(=O)Nc1cccc([N+](=O)[O-])c1,inactive,
O=C(COc1ccc(Cl)cc1Cl)N/N=C/c1cccnc1,inactive,
Cc1cccc(C)c1N1C(=O)CC(N2CCSCC2)C1=O (stereo unspecified),inconclusive: -15.4%,
COc1ccc(CNc2ncccc2[N+](=O)[O-])cc1,inconclusive: -1.63%,
Cc1cc(=O)[nH]c(-c2ccccc2)n1,inactive,
O=c1c(OC2OC(CO)C(O)C(O)C2O)c(-c2ccc(O)c(O)c2)oc2cc(O)cc(O)c12 (stereo unspecified),inactive,
CCOC(=O)c1cc(-c2ccccc2)n(CCC(=O)NCc2ccccc2Cl)c1C,inactive,
Cc1[nH]c2ccccc2c1C(=O)CN1CCSCC1,inconclusive: -1.64%,
CCOC(=O)C1=C(CSc2nc(C)cc(C)c2C#N)OC(N)=C(C#N)C1c1ccccc1 (stereo unspecified),inconclusive: -8.76%,
COc1ccc2c(c1)c1ccc3c(c1n2C)C(=O)C=CC3=O,inactive,

Compound,"activity change, negative = inhibition",Potency
Fc1ccc2[nH]c3c(NCc4ccccc4)ncnc3c2c1,inconclusive: 2.75%,
Cn1c(=O)n(Cc2ccc(Cl)cc2)c2ccccc21,,"inconclusive: 2.91 µM [falling, full curve, poor fit]"
CCN(CC1COc2ccccc2O1)C(=S)NCCCN(C)C (stereo unspecified),inactive,
O=C(NCC(=O)N(c1cccnc1)C(C(=O)NC1CCCC1)c1ccccc1)c1ccco1 (stereo unspecified),inconclusive: 7.54%,
O=C1N[C@H](Cc2c[nH]c3ccccc23)COC(=O)[C@H](Cc2ccc(F)cc2)C/C=C\C[C@H]1CC(=O)N(CCO)Cc1ccccc1,inconclusive: -1.17%,
Fc1ccc(CN2CCCCCCC2)cc1,,"inconclusive: 0.13 µM [falling, full curve, poor fit]"
CC(C)(C)OC(=O)N/N=C/c1ccc(Br)cc1,inconclusive: -0.423%,
Cc1cccc(NC(=O)c2ccc3nc(N4CCOCC4)sc3c2)c1C,,"inconclusive: 3.16 µM [falling, partial curve, poor fit]"
CCOC(=O)c1sc2nc3c(SCCC#N)cc(C(=O)c4cc(F)ccc4O)cn3c(=O)c2c1C,inactive,
CC(/C=C/c1ccco1)=N\NC(=O)c1cccnc1,inconclusive: -9.68%,
O=C(Nc1ccc2c(c1)CCC2)c1ccc(F)cc1,,"inconclusive: 29.1 µM [falling, single point]"
CSc1ccc(C(=O)C2CCCN(C(=O)Cc3nonc3C)C2)cc1 (stereo unspecified),inconclusive: 0.217%,
C=CCNC(=O)c1onc(CSc2cccc(C)c2)c1C(=O)O,,"inconclusive: 35.5 µM [falling, partial curve]"
NC(=O)C1CCCN1S(=O)(=O)c1ccc2ccccc2c1 (stereo unspecified),inconclusive: -4.12%,
CC1(C)Cc2c(cnn2-c2ccc(F)cc2)C(NC(=O)CN2CCCCC2=O)C1 (stereo unspecified),,"inconclusive: 20 µM [falling, partial curve]"
O=C(NCc1ccccc1)C1CCN(c2nc(-c3ccccc3)nc3c2CCC3)CC1,inconclusive: 2.36%,
COc1cc(/C=N\Nc2nc3ccccc3[nH]2)cc(OC)c1OC,,"inconclusive: 22.4 µM [falling, single point]"
O=C(Nc1cccnc1Cl)c1cc(-c2cccc(O)c2)on1,,"inconclusive: 17.8 µM [falling, partial curve, poor fit]"
